The test system of the assay is P388 leukemia ip, CD2F1 mice, survival T/C. The assay is described as follows: NCI In Vivo Anticancer Drug Screen. Data for tumor model P388 Leukemia (intraperitoneal) in CD2F1 (CDF1) mice. The following applies: T/C endpoint: median survival time, higher T/C = longer survival.
Setting [1] is: dose: 50.0 mg/kg/injection, schedule: Q01DX005 (ip), vehicle: saline with Tween-80.
[2] abbreviates: dose: 200.0 mg/kg/injection, schedule: Q01DX005 (ip), vehicle: saline with Tween-80.
The mark [3] stands for this setting: dose: 200.0 mg/kg/injection, schedule: Q01DX005 (ip), vehicle: Klucel (hydroxypropylcellulose) (HPC).
Where [4] appears, read: dose: 240.0 mg/kg/injection, schedule: Q01DX005 (ip), vehicle: Klucel (hydroxypropylcellulose) (HPC).
[5] abbreviates: dose: 200.0 mg/kg/injection, schedule: Q01DX009 (ip), vehicle: saline with Tween-80.
Where [6] appears, read: dose: 100.0 mg/kg/injection, schedule: Q01DX005 (ip), vehicle: Klucel (hydroxypropylcellulose) (HPC).
[7] abbreviates: dose: 25.0 mg/kg/injection, schedule: Q01DX005 (ip), vehicle: Klucel (hydroxypropylcellulose) (HPC).

The list is a part of this screen's results and no random one: it is rich in T/C values a quarter to a half above the control, in often repeated tests (any T/C) and in doses without a T/C. Further doses and runs are listed elsewhere. T/C is the treated group as % of the vehicle group. Some doses have a count of surviving animals in place of a T/C: the source holds a T/C of zero for them, seemingly a mark for toxic or unscored doses. Some survivor counts are full or nearly so, which does not show that the dose was tolerated: the source hardly ever lists a survival T/C far under the control, and the zero likely stands for such cases as well. Counts of survivors are from the toxicity check (mostly the fifth day) where no day follows; animals may have died later. Schedules are NCI's codes, read here as Q, the interval in days (D) or hours (H), X, the number of doses. Some doses were run more than once; the values are given in rising order. Where survival is the endpoint, the PubChem record calls one and a half times the control and up active, and a quarter to a half above the control has no call in these data; cut-offs in other NCI protocols can differ.

Turning to `Cc1ccccc1C(C)C[n+]1cccc(C)c1C` (stereo not given), the survivor count by setting is: (dose: 25.0 mg/kg/injection, schedule: Q01DX005 (ip), vehicle: saline with Tween-80) 2 of 5; under setting [1], 1 of 5; (dose: 100.0 mg/kg/injection, schedule: Q01DX005 (ip), vehicle: saline with Tween-80) 0 of 5; under setting [2], 0 of 5.

On to `COc1ccc2c(c1)C(Cc1ccc(Oc3ccc(CC4c5cc(OC)ccc5CC[N+]4(C)C)cc3)cc1)[N+](C)(C)CC2` (stereo not given), for which the survivor count (dose: 3.13 mg/kg/injection, schedule: Q04DX003 (ip), vehicle: water) is 6 of 6; the survivor count (dose: 6.25 mg/kg/injection, schedule: Q04DX003 (ip), vehicle: saline with Tween-80) was 0 of 6; the survivor count (dose: 6.25 mg/kg/injection, schedule: Q04DX003 (ip), vehicle: water) is listed as 0 of 6; the survivor count (dose: 12.5 mg/kg/injection, schedule: Q04DX003 (ip), vehicle: saline with Tween-80) is given as 0 of 6; the survivor count (dose: 25.0 mg/kg/injection, schedule: Q04DX003 (ip), vehicle: saline with Tween-80) is recorded as 0 of 6; the survivor count (dose: 50.0 mg/kg/injection, schedule: Q04DX003 (ip), vehicle: saline with Tween-80) is on record as 0 of 6. In addition, the survivor count runs as follows: (dose: 100.0 mg/kg/injection, schedule: Q04DX003 (ip), vehicle: saline with Tween-80) 0 of 6; (dose: 200.0 mg/kg/injection, schedule: Q04DX003 (ip), vehicle: saline with Tween-80) 0 of 6; (dose: 400.0 mg/kg/injection, schedule: Q04DX003 (ip), vehicle: saline with Tween-80) 0 of 6.

With `CCCn1c(C)nc2c(N)cc(C)cc21`, the survivor count under setting [3] is on record as 4 of 6.

For `CN1C=C([N+](=O)[O-])C(N2CCOCC2)C1N1CCOCC1` (stereo not given), the survivor count under setting [4] is given as 1 of 6.

With `Oc1cc2c(cc1C(c1ccc(Cl)cc1)N1CCN(C(c3ccc(Cl)cc3)c3cc4c(cc3O)OCO4)CC1)OCO2` (stereo not given), the survivor count under setting [4] is on record as 6 of 6.

Take `O=[N+]([O-])c1cc(Cl)c(Cl)cc1[N+](=O)[O-]`: the survivor count under setting [5] was 3 of 6.

In the case of `Cc1nc2ccccc2c(=O)n1/N=C1\C(=O)N(C)c2ccccc21`, under setting [3], the survivor count is reported as 2 of 6.

Consider `CN1c2ccccc2N=Cc2c1oc1ccc3ccccc3c1c2=O`, for which the survivor count is 0 of 6 (dose: 50.0 mg/kg/injection, schedule: Q01DX005 (ip), vehicle: Klucel (hydroxypropylcellulose) (HPC)); 3 of 6 under setting [6]; 1 of 6 under setting [3].

As for `CN(C)NC(=O)/C=C\C(=O)O`, the T/C was 125 % of control (dose: 50.0 mg/kg/injection, schedule: Q01DX009 (ip), vehicle: saline) and 129 % of control (dose: 100.0 mg/kg/injection, schedule: Q01DX009 (ip), vehicle: saline).

Consider `S=C=Nc1ccc(-c2csc(Nc3ccnc4cc(Cl)ccc34)n2)cc1`, for which the survivor count under setting [2] is 1 of 6.

With `COc1cc(NC(=O)c2ccc(NC(=O)c3ccc(N)cc3)cc2)c(OC)cc1N=Nc1cc(C)c(N=Nc2cc(S(=O)(=O)O)c3cccc(S(=O)(=O)O)c3c2)cc1C`, the survivor count under setting [2] is 5 of 6.

As to `NC(=S=O)C(N)=S=O`, the T/C under setting [2] is 127 and 135 % of control.

As to `N#CC1(Nc2ccccc2)CCCC1`, the T/C is, setting by setting: (dose: 3.13 mg/kg/injection, schedule: Q01DX009 (ip), vehicle: Klucel (hydroxypropylcellulose) (HPC)) 127 % of control; (dose: 25.0 mg/kg/injection, schedule: Q01DX009 (ip), vehicle: Klucel (hydroxypropylcellulose) (HPC)) 130 % of control.

In the case of `CC(C)(C)[P+](C)(C)c1ccccc1`, the survivor count (dose: 50.0 mg/kg/injection, schedule: Q04DX003 (ip), vehicle: Klucel (hydroxypropylcellulose) (HPC)) was 3 of 6; the survivor count (dose: 100.0 mg/kg/injection, schedule: Q04DX003 (ip), vehicle: Klucel (hydroxypropylcellulose) (HPC)) is recorded as 0 of 6; the survivor count (dose: 200.0 mg/kg/injection, schedule: Q04DX003 (ip), vehicle: Klucel (hydroxypropylcellulose) (HPC)) is 0 of 6; the survivor count (dose: 400.0 mg/kg/injection, schedule: Q04DX003 (ip), vehicle: Klucel (hydroxypropylcellulose) (HPC)) is listed as 0 of 6.

On to `CSc1nccn2c(C)nnc12`, for which the survivor count (dose: 400.0 mg/kg/injection, schedule: Q01DX001 (ip), vehicle: suspension in saline) is 0 of 6.

Regarding `CCCCCCCCCCCCCCC1(C(=O)OC)CO1` (stereo not given), the survivor count under setting [7] is recorded as 1 of 6, the survivor count under setting [6] is recorded as 0 of 6 and the survivor count under setting [3] was 0 of 6.

In the case of `COc1ccc(C2C(C(=O)OCc3ccccc3)=C(C)NC(C)=C2C(=O)OCc2ccccc2)cc1`, the survivor count was 6 of 6 (dose: 25.0 mg/kg/injection, schedule: Q01DX009 (ip), vehicle: distilled water + Tween-80) and 6 of 6 (dose: 50.0 mg/kg/injection, schedule: Q01DX009 (ip), vehicle: distilled water + Tween-80).

On to `O=NN(CCCl)C(=O)Nc1cccc(O)c1`, for which, under “dose: 150.0 mg/kg/injection, schedule: Q04DX003 (ip), vehicle: Klucel (hydroxypropylcellulose) (HPC)”, the survivor count is listed as 6 of 6.

With `COc1cccc2c1C(=O)c1c(O)c3c(c(O)c1C2=O)CC(OC1CC(N)C(O)C(C)O1)(C(C)=O)CC3OC1CC(N)C(O)C(C)O1` (stereo not given), the T/C (dose: 25.0 mg/kg/injection, schedule: Q01DX009 (ip), vehicle: water) was 137 % of control.

`Cc1c([N+](=O)[O-])oc2c1C(=O)c1ccccc1C2=O`: the survivor count under setting [4] is reported as 0 of 6.

As to `Cc1c2oc(=O)cc(-c3ccccc3)c2cc2c(=O)ccoc12`, the survivor count under setting [1] is 6 of 6.

`CC(=O)OC1CC(C)(O)Cc2cc3c(c(O)c21)C(=O)c1c(O)cc2c(c1C3=O)OC1OC2(C)C(O)C(N(C)C)C1O` (stereo not given): the T/C was 133 % of control (dose: 0.87 mg/kg/injection, schedule: Q01DX009 (ip), vehicle: other) and 144 % of control (dose: 1.75 mg/kg/injection, schedule: Q01DX009 (ip), vehicle: other).

Regarding `CN(C)c1ccc(C(Cl)[O][Sn]([CH3])([CH3])[Cl])cc1` (stereo not given), the survivor count was 0 of 6 and 4 of 6 (dose: 100.0 mg/kg/injection, schedule: Q04DX002 (ip), vehicle: saline with Tween-80); 0 of 6 (dose: 200.0 mg/kg/injection, schedule: Q04DX002 (ip), vehicle: saline with Tween-80); 0 of 6 (dose: 400.0 mg/kg/injection, schedule: Q04DX002 (ip), vehicle: saline with Tween-80).

As for `CCOC(=O)C(CCc1ccc(N(CCCl)CCCl)cc1)(NC(C)=O)C(=O)OCC`, for the setting “dose: 100.0 mg/kg/injection, schedule: Q01DX009 (ip), vehicle: Klucel (hydroxypropylcellulose) (HPC)”, the T/C is 126 % of control. The survivor count (dose: 200.0 mg/kg/injection, schedule: Q01DX009 (ip), vehicle: Klucel (hydroxypropylcellulose) (HPC)) is given as 6 of 6.

`O=C1c2ccccc2C(=O)c2c(Cl)cccc21`: the survivor count reads like this: (dose: 100.0 mg/kg/injection, schedule: Q01DX009 (ip), vehicle: saline with Tween-80) 6 of 6; under setting [5], 6 of 6; (dose: 400.0 mg/kg/injection, schedule: Q01DX009 (ip), vehicle: saline with Tween-80) 6 of 6.

Consider `C#CC(=O)CCC`, for which the survivor count (dose: 60.0 mg/kg/injection, schedule: Q01DX005 (ip), vehicle: saline with Tween-80) is on record as 0 of 6; the survivor count (dose: 120.0 mg/kg/injection, schedule: Q01DX005 (ip), vehicle: saline with Tween-80) was 0 of 6; the survivor count (dose: 240.0 mg/kg/injection, schedule: Q01DX005 (ip), vehicle: saline with Tween-80) is 0 of 6.

On to `OCCN1CCN(CCCN2c3cscc3Sc3ccc(Cl)cc32)CC1`, for which the survivor count under setting [7] is 5 of 6, the survivor count under setting [6] is 3 of 6 and the survivor count under setting [3] is given as 0 of 6.

For `COC(=O)C1CC=C(c2ccccc2)CNC1` (stereo not given), the survivor count (dose: 400.0 mg/kg/injection, schedule: Q01DX001 (ip), vehicle: saline with Tween-80) was 0 of 6.

For `CCOC(=O)N1Cc2cc3ncccc3nc2C1`, the survivor count under setting [6] is listed as 6 of 6.

For the origin of these results see PubChem BioAssay AID330 (DTP/NCI, 2004).
